Reference: paper PMC10746232
Results are given in words; binding and its absence hold for the method and conditions named. In cells and extracts the contact can be indirect. A yes stands for co-enrichment or nearness to the bait. Other partners may have been found. For some of these results: No binding means not detected with the bait.

Chains of the proteins cited; added tags and fusions are not shown.
UniProt S8F360: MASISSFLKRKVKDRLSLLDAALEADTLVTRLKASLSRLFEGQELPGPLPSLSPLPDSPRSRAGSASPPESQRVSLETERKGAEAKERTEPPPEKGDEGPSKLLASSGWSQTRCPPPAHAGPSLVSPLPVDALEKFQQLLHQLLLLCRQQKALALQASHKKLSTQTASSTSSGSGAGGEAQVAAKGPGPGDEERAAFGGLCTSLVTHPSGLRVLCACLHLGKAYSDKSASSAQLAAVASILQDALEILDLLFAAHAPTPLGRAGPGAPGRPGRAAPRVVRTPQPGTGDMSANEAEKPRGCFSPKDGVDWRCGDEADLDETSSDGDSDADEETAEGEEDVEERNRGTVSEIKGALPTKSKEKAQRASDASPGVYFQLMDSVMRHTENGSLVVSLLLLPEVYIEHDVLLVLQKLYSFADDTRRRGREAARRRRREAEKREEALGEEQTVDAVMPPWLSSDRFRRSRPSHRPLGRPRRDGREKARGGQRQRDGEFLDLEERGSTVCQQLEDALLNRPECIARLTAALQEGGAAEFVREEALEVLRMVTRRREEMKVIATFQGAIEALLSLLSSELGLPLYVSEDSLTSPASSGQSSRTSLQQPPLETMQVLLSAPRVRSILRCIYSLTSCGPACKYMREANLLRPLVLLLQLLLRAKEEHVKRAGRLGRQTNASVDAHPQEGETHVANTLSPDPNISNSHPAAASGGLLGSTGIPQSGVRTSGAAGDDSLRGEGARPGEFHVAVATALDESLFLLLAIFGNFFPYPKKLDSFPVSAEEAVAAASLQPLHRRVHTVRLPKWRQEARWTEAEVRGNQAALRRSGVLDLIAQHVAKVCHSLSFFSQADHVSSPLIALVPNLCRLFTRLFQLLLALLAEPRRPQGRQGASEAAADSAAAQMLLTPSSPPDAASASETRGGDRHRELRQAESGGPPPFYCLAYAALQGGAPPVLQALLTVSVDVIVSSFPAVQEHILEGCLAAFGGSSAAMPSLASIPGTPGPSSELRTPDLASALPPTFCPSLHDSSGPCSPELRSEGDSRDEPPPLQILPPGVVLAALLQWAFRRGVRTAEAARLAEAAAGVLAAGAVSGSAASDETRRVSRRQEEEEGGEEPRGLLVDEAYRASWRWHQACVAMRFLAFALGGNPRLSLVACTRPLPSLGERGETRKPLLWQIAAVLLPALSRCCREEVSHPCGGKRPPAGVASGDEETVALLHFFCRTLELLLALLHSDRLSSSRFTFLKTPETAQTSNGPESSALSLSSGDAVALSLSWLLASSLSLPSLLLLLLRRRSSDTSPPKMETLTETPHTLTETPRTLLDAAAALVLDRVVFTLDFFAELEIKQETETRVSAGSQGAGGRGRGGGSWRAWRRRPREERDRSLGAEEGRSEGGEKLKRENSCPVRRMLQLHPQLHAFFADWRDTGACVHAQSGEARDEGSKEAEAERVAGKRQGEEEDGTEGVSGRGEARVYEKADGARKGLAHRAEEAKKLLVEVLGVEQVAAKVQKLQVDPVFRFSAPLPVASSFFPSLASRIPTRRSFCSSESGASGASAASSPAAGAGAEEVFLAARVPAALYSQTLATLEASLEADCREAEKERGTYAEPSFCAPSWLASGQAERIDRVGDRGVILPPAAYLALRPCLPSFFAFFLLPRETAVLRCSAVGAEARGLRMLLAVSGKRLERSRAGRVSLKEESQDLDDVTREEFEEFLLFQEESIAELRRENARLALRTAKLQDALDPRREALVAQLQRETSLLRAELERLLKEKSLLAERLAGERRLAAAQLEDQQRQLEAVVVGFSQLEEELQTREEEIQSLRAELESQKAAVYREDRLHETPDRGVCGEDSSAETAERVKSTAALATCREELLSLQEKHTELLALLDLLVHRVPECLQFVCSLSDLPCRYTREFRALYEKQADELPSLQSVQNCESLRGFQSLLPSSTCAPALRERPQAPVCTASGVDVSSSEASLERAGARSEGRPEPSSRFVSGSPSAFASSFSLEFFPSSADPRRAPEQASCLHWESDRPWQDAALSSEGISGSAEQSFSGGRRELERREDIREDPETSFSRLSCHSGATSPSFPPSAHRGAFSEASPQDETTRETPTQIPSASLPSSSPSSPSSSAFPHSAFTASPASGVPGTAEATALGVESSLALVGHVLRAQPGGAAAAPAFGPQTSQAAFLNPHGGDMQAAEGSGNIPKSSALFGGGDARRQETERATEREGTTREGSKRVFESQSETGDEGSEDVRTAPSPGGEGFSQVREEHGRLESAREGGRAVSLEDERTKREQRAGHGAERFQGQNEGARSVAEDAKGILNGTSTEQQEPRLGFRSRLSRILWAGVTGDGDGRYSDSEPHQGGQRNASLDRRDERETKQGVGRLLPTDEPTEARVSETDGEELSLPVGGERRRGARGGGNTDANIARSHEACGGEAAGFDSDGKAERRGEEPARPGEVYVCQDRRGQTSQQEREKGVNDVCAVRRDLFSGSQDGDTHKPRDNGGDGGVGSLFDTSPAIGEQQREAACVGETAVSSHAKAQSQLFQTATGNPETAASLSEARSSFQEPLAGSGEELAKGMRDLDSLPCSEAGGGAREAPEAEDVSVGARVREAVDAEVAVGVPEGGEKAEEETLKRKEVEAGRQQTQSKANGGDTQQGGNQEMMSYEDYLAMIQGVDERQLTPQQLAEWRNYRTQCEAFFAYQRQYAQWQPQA
UniProt A0A125YZG0: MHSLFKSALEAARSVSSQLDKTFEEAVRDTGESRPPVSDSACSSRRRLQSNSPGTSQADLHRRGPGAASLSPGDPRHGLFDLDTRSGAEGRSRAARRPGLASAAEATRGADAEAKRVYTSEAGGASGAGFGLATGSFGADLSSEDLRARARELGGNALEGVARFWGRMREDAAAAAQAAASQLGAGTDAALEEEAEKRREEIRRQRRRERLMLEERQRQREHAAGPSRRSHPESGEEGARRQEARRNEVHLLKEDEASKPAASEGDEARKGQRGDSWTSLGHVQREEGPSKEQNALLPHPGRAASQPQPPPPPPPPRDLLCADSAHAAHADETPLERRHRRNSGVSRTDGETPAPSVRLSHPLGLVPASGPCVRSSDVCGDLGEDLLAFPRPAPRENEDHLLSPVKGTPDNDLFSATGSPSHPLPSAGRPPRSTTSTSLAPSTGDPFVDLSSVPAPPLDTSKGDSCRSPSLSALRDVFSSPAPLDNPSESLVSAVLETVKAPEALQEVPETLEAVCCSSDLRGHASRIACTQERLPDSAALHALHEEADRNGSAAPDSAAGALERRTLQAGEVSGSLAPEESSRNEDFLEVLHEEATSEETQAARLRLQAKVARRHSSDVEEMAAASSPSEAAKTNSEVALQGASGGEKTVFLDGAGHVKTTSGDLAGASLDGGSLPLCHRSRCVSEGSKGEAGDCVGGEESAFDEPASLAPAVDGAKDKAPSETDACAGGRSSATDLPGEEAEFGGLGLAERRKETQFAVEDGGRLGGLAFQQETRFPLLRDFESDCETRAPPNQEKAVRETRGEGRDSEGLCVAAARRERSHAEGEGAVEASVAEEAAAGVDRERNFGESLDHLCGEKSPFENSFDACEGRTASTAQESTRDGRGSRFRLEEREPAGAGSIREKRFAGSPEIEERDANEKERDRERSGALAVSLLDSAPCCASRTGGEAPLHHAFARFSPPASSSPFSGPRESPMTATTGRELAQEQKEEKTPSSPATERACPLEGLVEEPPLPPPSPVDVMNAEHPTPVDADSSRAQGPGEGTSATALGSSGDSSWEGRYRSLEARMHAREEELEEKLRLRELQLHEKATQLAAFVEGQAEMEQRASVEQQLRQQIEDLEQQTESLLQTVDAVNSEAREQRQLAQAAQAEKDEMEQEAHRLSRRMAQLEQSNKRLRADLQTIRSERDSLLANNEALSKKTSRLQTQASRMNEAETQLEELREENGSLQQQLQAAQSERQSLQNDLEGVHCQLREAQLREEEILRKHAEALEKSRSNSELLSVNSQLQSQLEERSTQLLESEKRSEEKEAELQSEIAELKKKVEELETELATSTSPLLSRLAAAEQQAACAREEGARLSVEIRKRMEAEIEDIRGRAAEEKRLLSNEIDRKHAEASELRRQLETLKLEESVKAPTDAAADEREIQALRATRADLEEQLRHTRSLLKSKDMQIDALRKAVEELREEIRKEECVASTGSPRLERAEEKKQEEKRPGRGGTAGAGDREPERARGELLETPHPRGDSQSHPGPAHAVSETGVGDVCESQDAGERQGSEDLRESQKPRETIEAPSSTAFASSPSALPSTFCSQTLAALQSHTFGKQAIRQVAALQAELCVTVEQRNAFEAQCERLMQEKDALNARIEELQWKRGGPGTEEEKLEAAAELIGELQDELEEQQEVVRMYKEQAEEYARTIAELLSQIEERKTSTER
UniProt S8F057: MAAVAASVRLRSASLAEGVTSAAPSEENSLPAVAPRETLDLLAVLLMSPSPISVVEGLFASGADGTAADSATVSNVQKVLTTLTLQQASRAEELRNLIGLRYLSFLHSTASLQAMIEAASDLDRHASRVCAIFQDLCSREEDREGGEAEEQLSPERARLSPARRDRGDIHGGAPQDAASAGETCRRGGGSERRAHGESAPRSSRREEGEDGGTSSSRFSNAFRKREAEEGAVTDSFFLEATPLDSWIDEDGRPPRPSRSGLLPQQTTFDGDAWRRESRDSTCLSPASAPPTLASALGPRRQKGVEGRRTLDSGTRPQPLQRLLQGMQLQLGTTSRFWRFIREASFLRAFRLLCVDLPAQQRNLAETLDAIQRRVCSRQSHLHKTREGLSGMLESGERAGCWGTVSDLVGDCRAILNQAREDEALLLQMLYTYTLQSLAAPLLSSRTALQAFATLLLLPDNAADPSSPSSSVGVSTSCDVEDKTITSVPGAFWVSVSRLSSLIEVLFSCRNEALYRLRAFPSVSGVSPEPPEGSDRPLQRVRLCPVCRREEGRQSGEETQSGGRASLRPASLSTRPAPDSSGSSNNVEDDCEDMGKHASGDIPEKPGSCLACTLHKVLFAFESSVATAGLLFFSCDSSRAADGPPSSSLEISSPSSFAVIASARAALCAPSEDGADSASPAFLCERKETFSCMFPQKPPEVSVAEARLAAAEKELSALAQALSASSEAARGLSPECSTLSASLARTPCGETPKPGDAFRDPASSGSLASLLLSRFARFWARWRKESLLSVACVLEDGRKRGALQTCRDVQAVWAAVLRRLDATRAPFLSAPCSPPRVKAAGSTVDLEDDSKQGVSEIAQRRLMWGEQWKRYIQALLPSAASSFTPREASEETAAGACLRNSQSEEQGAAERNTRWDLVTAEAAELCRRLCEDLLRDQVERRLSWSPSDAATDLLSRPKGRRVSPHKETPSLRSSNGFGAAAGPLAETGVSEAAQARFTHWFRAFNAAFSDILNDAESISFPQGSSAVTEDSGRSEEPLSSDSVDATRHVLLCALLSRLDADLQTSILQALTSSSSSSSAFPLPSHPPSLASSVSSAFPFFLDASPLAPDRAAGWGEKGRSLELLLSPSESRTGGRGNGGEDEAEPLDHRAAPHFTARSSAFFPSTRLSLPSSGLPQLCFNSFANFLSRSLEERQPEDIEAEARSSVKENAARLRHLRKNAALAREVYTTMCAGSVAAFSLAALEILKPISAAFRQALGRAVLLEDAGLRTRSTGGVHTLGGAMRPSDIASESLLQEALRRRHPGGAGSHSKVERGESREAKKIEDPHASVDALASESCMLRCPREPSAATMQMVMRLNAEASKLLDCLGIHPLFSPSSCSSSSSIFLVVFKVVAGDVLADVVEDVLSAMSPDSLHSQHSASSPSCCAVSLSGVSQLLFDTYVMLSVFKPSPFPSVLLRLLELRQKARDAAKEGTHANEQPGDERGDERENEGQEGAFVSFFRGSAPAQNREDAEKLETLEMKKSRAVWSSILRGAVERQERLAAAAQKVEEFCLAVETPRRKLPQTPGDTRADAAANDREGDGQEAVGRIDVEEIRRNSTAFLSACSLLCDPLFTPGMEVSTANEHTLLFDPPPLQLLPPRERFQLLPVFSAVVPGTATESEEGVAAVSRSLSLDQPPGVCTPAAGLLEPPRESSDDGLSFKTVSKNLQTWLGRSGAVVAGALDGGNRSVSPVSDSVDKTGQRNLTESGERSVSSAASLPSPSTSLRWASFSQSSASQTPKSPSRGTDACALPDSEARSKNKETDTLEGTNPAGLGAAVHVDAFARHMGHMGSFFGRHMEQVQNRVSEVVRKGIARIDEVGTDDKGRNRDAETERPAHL

How the values were obtained:
[1] = target: TGME49_289120^myc (Toxoplasma gondii (endogenous in RH tachyzoites)) (UniProt S8F360); experiment: affinity purification with mass spectrometry; myc-tagged bait (TGME49_289120^myc or TgGlp1^myc) isolated on α-Myc magnetic beads; extraction in PBS with 263 mM NaCl, 1% Triton X-100; pull-down from the parental strain as control; SAINT analysis
[2] = target: TgGlp1^myc (Toxoplasma gondii (endogenous in RH tachyzoites)); experiment: as above
[3] = target: TgCog8^AID-HA (Toxoplasma gondii (endogenous in RH tachyzoites)); experiment: affinity purification with mass spectrometry; TgCog8^AID-HA complexes from dividing tachyzoites isolated on α-HA magnetic beads; extraction in PBS with 263 mM NaCl, 1% Triton X-100; pull-down from the parental strain as control; SAINT analysis

**Q.** For “TgGlp1 (Golgi protein 1) (from UniProt A0A125YZG0 1-1711)”, which binding [1] is on record?
**A.** Its binding is “no binding”.

**Q.** For TgCog1 (from UniProt S8F057 1-1878), which binding [1] is on record?
**A.** The binding was “binds”.

**Q.** What about the binding [2] of the same molecule?
**A.** The binding was “no binding”.

**Q.** “TgUlp1 (Uso1-like protein 1) (from UniProt S8F360 1-2703)” was tested. Which binding [2] did it give?
**A.** The binding was “no binding”.

B1: TgCog5 (protein, UniProt S8ESF4 1-1471)
chain: MEESRRRRSSAGERAEPSLDDSGDVEIGDLLHCLDSATVDLVHHSLPSEVLSRSHLPSQKETVPFQSTKHARALASPALKSDALNVAVYVHRVVGRGDEASSAHAAAAVKALDGALERLDEEMKKAAMFSQGERLGYENDTEIKHRRRHSSFFEGDAGRRSGENEDVRRHAHGGVPALPALLRLLGSDGEKGEGRRLRGEELREKEEQVLLALLHDSDEEKEEERGEKRQLEGDCGLVADALDGTSFIEQVKEEIQDICRESKQLHTEADRMYQSVEEEILVASRLLLLQEVVRECLHFVSTFKRLLKEESPSAKAALVKKLLALLREPHRLSASCSAAVCTPGDERGIQTGAPSAGETEKVVALGDLQSLSHCVSLVQREAAHLRNAARQQLLQAVEQGSSLSLASALDVFFLLDQLWEQVEAVLRTLVAGVCTPVATQTLQNEASRGAVSACTRVGKGSLPALLCRSDFESNLAAETESFFSRLEEGLKRASLVDQVLAVGEDPVTRQPYTAFLVASGFASTLSDEVWRASSVHFSAVLRQVGAFGPLPPSLLAALASAVSQRTQRRRRGPARASEERQGSTEEGEENRERRDTGDNEEEKEEEEKREEREAELSRFAASLAPPQRALVEATPLLSFLLLAFLRRCEEISRAGVLSKAPSESQTGVLLGTISPLRQVYIHLLAARLDGVLSSLFSTKSFSQVRLFLRRLPSAFPLSLLLPPVGSTASGSSSGEEETCREAFSRLLQAVDPVVRLPASPDIDALVSAAFGELERARVSTDAELTRQAADVVEETLESLVLLCLCQLHRDVELEPPVLVDASGKQLLRRLPAASAARVRVSKVFALFAGVEAAMKTVLEENPHFLPLLQAPSEERSERGSFSFEESLRGFQASPCVSGEFFGDAEEAEHALFLERLYSQKPSLLQWNTFREVAAVKRRLLAPLFSSVERAAVDGCLQRIVEELPASLSSPGSKAADTRERTAARGEMAATEDVEQLHALCELERLLCHVQQQYLCLLPPASLVAPLSSLSLAVLETLLSLACVCEAGDERARAFVAAVVARGEVLLSAFWTDFHKHVRVGSDMLRNVRRLLFADSPFLLHEVLTLLPQQEPWLCSENGTFSSSSSASSSSCLASPASLVTSSLPPLLVAVHLLYRLPAQSHSQQSPAGPPACLRLPGGAPELARRLSAYLRRERREPYGEGEEELETEHEETVQKLRRDLRHVVTLWGKGEESKESTGDGREGEERREREERRERRKARGWMHRDREEEKREDLKLLTQVARLLNAAVNGGREVAEGNAREIVTSAHEAPEKSTPASSLEQTPLSAENAVPVNPSPFSSSASPPSPFSASPCSSSAPALSSSSSLSSSLPSLSVQAGEAAQEQKAGARLPGFPKVHSNSLQSPSLSLNGVGEPQNSWGQTMGDREDPKAAQVPALGASPYLGWEAEKEREQEPHARTESSVPWHPPPPPCL
**Q.** How did the binding [3] turn out when B1 was run?
**A.** The binding was “binds”.

**Q.** And the binding [1]?
**A.** Its binding is “binds”.

**Q.** What about the binding [2] of the same molecule?
**A.** The binding was “no binding”.

B2: TgCog6 (protein, UniProt S8F0D4 1-1298)
chain: MESSSGSISLGEAAASAAPLPCDVPSQSPPPFGVSAPSRAAGVSLPTSSATPVSPVLHTSSLSSSHSYKSLSRSAEPAAKSSVSASKLHPLSREVARILSHPFLEAPFLPEALACLSSCIDAGDQTAVSADSKTCGDSALSADSSLTPSQSSGLERPSFLGPLIYREKLRIHQEALGAFAPIRRQIVEVAEQAQTLSRMCSQSSSQLRRSRAQLAGLLCKVEGLREQQRALQSRQRLCQLLLDALQLPARLLEALTGRRRACVDLPETAHGDKTALAGAAKGPKQGLGPEGPGEGDSKEDLQLDSRFFEALKEVEKIRKRALKLQAQTSMADRDISEEHQSCMQNASLANRSDRMLFGGAPPRLADDVLQHTADLREAAFERLYLWMQRIFKSACVGGVNAKSRQDRRSDRSDHSGGQSSRHERETPSGDSETLDAVQQVEAFAAALATAGLARKWEREGLARAGETQSLTTVLGVNDEPSLLFRGFQALEDRHAYLQHSVQEFSRVRSQLIIDAFWGSSLESEAAPPARASTGPVSGLLARTRDLAQHWRKGGVFGGNAGLGGGSPGDADGRAAAEAANGLALGASFDTVCRAEPVEFLRATLQYVVHAVAAERAVIRGLLGLLPREDTQPPGGASGGIGALGSLGLETPGGRSKCLAEETDSLGGAERRQTEPVSGLDVEDPAKEAREATVETREGARRHLDAQEWVLDENGRPGALPDGPSAEGKEGRGGDLGAPDRACGGGEPSGSCGEMLGVREALRGTRLLQETTAGMSRPLRATIEQAFSMIRASATAPGAAGGTRLQQQHVLGVLLMVRMLDVYAALLRCLLVFDMGLASATRHPQEPKGGPGPQPVPGEGPPENVREPSVSDPTYPSPAARGRLETRTGNAVVETSFTVPELVLCCEEYAEKGEELFLSLWERQVVRAASSSTAAQLSSVLLSGRLSPGVPGTEGSAGLGGEGELIATEGGAFLELTGRLREALEILNAPVISVEEENELWLLASGAAAAASRRSRPMAAGGLPAWADTPVVTNLVRDRDASVWGTEVRRRSHLAGRRSRITGMRAFEDLSSEACEGGEGEQASEELHAWVEASVAPLLNFCRQEAQRFSDAGETAVCLINAYASVQEPLRRFRVCRSYLRVLAELLDQQMVKLIEVESGKILAYLGLADRLEAVRRAVEREKGRLGVAGPDALPQVGDGKAPLQVGTEQSGDAGPDDEVLLHKEGLVKFFGEFYVALYGLSALNLDYVDRLMHWHLRSHAKKAVLNAVLQAYSEIYNHVSHLRVATHTPGDVALLLDV
**Q.** B2 was tested. Which binding [3] did it give?
**A.** The binding was “binds”.

**Q.** And the binding [1]?
**A.** The binding was “binds”.

**Q.** And the binding [2]?
**A.** Its binding is “no binding”.

B3: TgCog7 (protein, UniProt S8FAE0 1-1223)
chain: MASPVPKPPEGALPGSPLPSSNSSSSASLQSSAVSAAFNALSAPTFSAGAWLDACIERSLEQQAFEAPPVASSSLASSPETETARLADRLESTLESVLAEVQRRIATTFEALDTKSQDLSSAAPTYVKQVEELSGKLVDARRTVDDALKALSCVDFEHQESLRRLAALDALRRHFHRCRRVLLVLHQWDFRVGEIELLLHSFQHQETPLIANPASSVDGTPFHPHQPSQGQGLSDDADASTFSSSSFSSSASSASSASSASSSSSSSAFEHAASTARLRSLAQAAMHAAALKNAVQELKAFGEFSARVRAAELLEKRVVVVTRSLMRSAFLSGDAESLRVAMNISVTLNHSAQLQQELSKCFGDQLRQAWLATWARTPAGRRRREAEVAAGACWALAPNERLHGERELYAEEQGDGFPREEADACGDDASVEKEQRTIGEPEALLLYFEEFTRLLEERSSLLRLFADELSQAEIRALRASSDDASSTSSCSSAAHSASSSSRSADPQGPFGCGRRGEEETSGVAGAASQAPHRPLRLHRTASRLHTRVWEETLLLCLKVGGEAPNAEVEAFLAAGGADLEEDDEERMARIEKLLQTYDMGFTLLSATPVVAESEPHIPQLWRKISSTCLFFPALLLRQFNAALWKSSRRFFLQDAPSVRPFDKRQAPSQVVMELEGRLDRTLQRLSSPALAALSPGAFHLCLAPCLLSAVDDAVAEFLSSLSPVLQTFAHTIQYKTQSIQDTQNRERERDLPARGNAGDFLPLDVLPTSLPFDLSLLNACMQQYLLFASAQQKLAQGAAVVFDEALTGHRRHSRFNVYLRELTNLHPDLLVYPSPSAVAHSASLLPSSCSSSFSAPPLPSVLPASFAAYTKLRHASRALVLLACSAPCSLFLHRFYPLCWGAISVSSSAQRAESLLREQRESINGQESKAILPSSVSTAAGEFFLQLLPHLEVAAAGAKGSEKRETEVESSDESLIAGLLSVVFTSFCRALLVADLPTRLTKEEPVQRGELRENMLLQLQADARYLASLSRSLGYDPEEESSFLFFETESGEGSEKARDAQADKQDQQTKDEERESSDLGETKKEEKDEAVRQERKRGPTWMIGLLLRGLDALLGTAEGETSAEPSAAKREEIKNNADENSSSLGCLGAFEAHLRRKFAREKNETKGESPSDSERVRAARAVAAAALESPSSDLCKSEKEKEDEEVTLVWAVLCQLGVFPSPL
**Q.** Which results are given for B3?
**A.** binding [3]: binds; binding [1]: binds; binding [2]: no binding
